According to paper PMC3639902:
No constants are given. Whether binding was seen depends on the method and setting. Some entries that bind do so weakly or less than the wild type.

Chains of the proteins cited; added tags and fusions are not shown. Residues count along the entry.
UniProt P56199, residues 1135-1179: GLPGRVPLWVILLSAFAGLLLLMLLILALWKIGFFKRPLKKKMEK
UniProt P05556, residues 717-798: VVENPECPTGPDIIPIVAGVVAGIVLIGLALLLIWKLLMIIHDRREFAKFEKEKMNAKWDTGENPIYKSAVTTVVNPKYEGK

Target: integrin α1 transmembrane and cytoplasmic (TMC) domains, α1-TMC (G1135-K1179) (human) (UniProt P56199)
Assay: NMR titration; 1H-15N HSQC of 15N-labelled α1-TMC titrated with non-labelled β1-TMC in LDAO micelles; molar ratios α1/β1 1:0, 1:0.5, 1:1; 30°C; Varian 500 MHz; both purified

binding: binds weakly
Substance: integrin β1 transmembrane and cytoplasmic (TMC) domains, β1-TMC (V717-K798) (from UniProt P05556 717-798) (domain or fragment)
